Paper PMC13202173

Amino acid sequences for entries named in this document (tags omitted).
UniProt P25490, whole entry: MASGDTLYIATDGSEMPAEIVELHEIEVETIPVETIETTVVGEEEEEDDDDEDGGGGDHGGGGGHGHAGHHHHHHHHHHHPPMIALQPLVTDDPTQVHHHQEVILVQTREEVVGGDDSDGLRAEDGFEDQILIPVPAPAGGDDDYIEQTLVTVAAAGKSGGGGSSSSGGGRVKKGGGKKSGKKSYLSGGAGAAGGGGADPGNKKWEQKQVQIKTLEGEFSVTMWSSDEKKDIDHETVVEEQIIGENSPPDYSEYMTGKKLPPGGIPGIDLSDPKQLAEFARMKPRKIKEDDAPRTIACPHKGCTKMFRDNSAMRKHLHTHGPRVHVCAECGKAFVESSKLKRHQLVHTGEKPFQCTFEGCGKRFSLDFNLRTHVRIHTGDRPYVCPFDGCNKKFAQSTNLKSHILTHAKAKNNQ

How the values were obtained:
[1] = target: MBP-mCherry-YY1 (Homo sapiens) (UniProt P25490); test: EMSA; settings: Motif EMSA: 10 mM Tris pH 7.5, 50 mM KCl, DTT, Tween 20, 5 mM MgCl2, ~25 nM probe, room temperature 30 min, G4 EMSA: 10 mM Tris-HCl pH 7.5, 100 mM KCl, 10 uM Zn, recombinant protein, protein details: N-MBP-TEV, C-mCherry, label: 5' IRDye 700 on strand 1
[2] = target: MBP-YY1 (UniProt P25490); test: fluorescence anisotropy; settings: 100 mM KCl, anisotropy: same without glycerol, on ice 30 min, recombinant protein, protein details: MBP (as named in the legends of Fig 5F and 6I), label: 5' IRDye 700 on strand 1, folded or branched DNA

Sequence	binding result ([1]; 5 mM Mg2+, no polyP)	binding result ([1]; polyP100 (7.5 mM by Methods), 5 mM Mg2+)	binding result ([1]; polyP700 (7.5 mM by Methods), 5 mM Mg2+)	binding result ([2]; 5 mM polyP100, 10 uM Zn2+)	binding result ([2]; 5 mM polyP700, 10 uM Zn2+)	binding result ([2]; no polyP, 0.4 uM protein, 10 nM probe, 10 uM Zn2+)	binding result ([1]; polyP100, 10 uM Zn2+, 100 mM KCl, folded or branched DNA)	binding result ([1]; polyP700 (1 mM sufficient), 10 uM Zn2+, 100 mM KCl, folded or branched DNA)
GCCGCCATTTTG (double strand) [YY1 long consensus motif probe]	binds	no binding	binds more weakly	–	–	–	–	–
AAAGGGTTAGTGTTAGTGTTAGGGAA / TTCCCTAACCCTAACCCTAACCCTTT [human telomere G4 (hTEL) probe]	–	–	–	binds more weakly	binds more weakly	binds	no binding	binds more weakly

Construct, isoform or probe ends are uncertain for at least one entry. For some assays here: A negative result means that nothing was seen under these conditions. A weaker result is weaker than the reference pair of the same experiment. At least one verdict was read from the data and is not stated in words by the source.
